No constants are given. Whether binding was seen depends on the method and setting. In cells and extracts the contact can be indirect. Some binding calls cover weakened binding; strength is not graded here.

Chains of the proteins cited; added tags and fusions are not shown.
UniProt Q9UM11: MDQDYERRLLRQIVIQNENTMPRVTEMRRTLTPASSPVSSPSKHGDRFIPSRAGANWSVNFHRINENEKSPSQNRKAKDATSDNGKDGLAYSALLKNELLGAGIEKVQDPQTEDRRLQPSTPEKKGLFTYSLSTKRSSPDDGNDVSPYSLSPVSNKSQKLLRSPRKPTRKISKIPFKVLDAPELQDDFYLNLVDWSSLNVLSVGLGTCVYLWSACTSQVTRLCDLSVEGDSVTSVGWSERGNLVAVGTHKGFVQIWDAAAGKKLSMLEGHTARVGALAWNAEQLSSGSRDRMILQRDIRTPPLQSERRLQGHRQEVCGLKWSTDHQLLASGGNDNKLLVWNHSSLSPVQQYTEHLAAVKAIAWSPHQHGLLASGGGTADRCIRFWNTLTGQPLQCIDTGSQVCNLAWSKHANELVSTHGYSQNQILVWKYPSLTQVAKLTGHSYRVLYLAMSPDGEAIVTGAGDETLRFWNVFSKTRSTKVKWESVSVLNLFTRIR

Results on one molecule are retold here after article PMC3448725.

The target of the assay is Cdh1 (APC/C co-activator) (human (endogenous in HEK293T)) (UniProt Q9UM11). The assay is described as follows: co-IP; endogenous Cdh1 immunoprecipitated with anti-Cdh1 antibody on protein A/G beads from lysates of HEK293T cells treated with nocodazole for 20 h and MG132 for 6 h; blot with anti-BRSK2; lysis buffer 20 mM Tris-HCl pH 7.5, 150 mM NaCl, 1% Triton, 4°C; control IgG in parallel.

B1: Brain-specific kinase 2 (BRSK2) (protein, UniProt Q8IWQ3 1-736)
chain: MTSTGKDGGAQHAQYVGPYRLEKTLGKGQTGLVKLGVHCVTCQKVAIKIVNREKLSESVLMKVEREIAILKLIEHPHVLKLHDVYENKKYLYLVLEHVSGGELFDYLVKKGRLTPKEARKFFRQIISALDFCHSHSICHRDLKPENLLLDEKNNIRIADFGMASLQVGDSLLETSCGSPHYACPEVIRGEKYDGRKADVWSCGVILFALLVGALPFDDDNLRQLLEKVKRGVFHMPHFIPPDCQSLLRGMIEVDAARRLTLEHIQKHIWYIGGKNEPEPEQPIPRKVQIRSLPSLEDIDPDVLDSMHSLGCFRDRNKLLQDLLSEEENQEKMIYFLLLDRKERYPSQEDEDLPPRNEIDPPRKRVDSPMLNRHGKRRPERKSMEVLSVTDGGSPVPARRAIEMAQHGQRSRSISGASSGLSTSPLSSPRVTPHPSPRGSPLPTPKGTPVHTPKESPAGTPNPTPPSSPSVGGVPWRARLNSIKNSFLGSPRFHRRKLQVPTPEEMSNLTPESSPELAKKSWFGNFISLEKEEQIFVVIKDKPLSSIKADIVHAFLSIPSLSHSVISQTSFRAEYKATGGPAVFQKPVKFQVDITYTEGGEAQKENGIYSVTFTLLSGPSRRFKRVVETIQAQLLSTHDPPAAQHLSDTTNCMEMMTGRLSKCGSPLSNFFDVIKQLFSDEKNGQAAQAPSTPAKRSAHGPLGDSAAAGPGPGGDAEYPTGKDTAKMGPPTARREQP
As for B1, the binding result is “binds”.
